Results published in PMC4829596 (Frontiers in Microbiology, 2016).

System: D. microsporus
Assay: Production of the isolated compounds in fungal culture, determined by MS with standards
Design: species or system Doratomyces microsporus
[1] = supernatant of VPA + Trp treated D. microsporus
[2] = supernatant of VPA treated (+VPA, 50 μM) D. microsporus
[3] = supernatant of tryptophan treated (+Trp) D. microsporus
[4] = supernatant of untreated D. microsporus

Structure (SMILES)	x-fold of untreated extract (+Trp)	x-fold of untreated extract (+VPA)	x-fold of untreated extract (VPA + Trp)	Amount [1] [mg/L]	Amount [2] [mg/L]	Amount [3] [mg/L]	Amount [4] [mg/L]
O=C1NC(Cc2ccccc2)C(=O)N2CCCC12 [cFP, cyclo-(L-phenylalanine-L-proline)]	0.875	5	1.375	0.0011	0.0040	0.0007	0.0008
O=C(O)Cc1ccccc1 [PAA, phenylacetic acid]	2.38	7.5	4.875	0.39	0.60	0.16	0.08
